Results taken from PubChem BioAssay AID2685 (National Center for Advancing Translational Sciences (NCATS), 2010).
The other results are listed elsewhere or left out. Further columns of the screen follow, without active or inactive calls. The list favours compounds with an active or inconclusive main result. The note in brackets gives the kind of curve behind each potency; many fits are weak.

Assay: qHTS Assay for Lipid Storage Modulators in Drosophila S3 Cells;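 for cell number change: cells counted by Cell Tracker Red CMTPX staining in the red channel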
Settings: BODIPY lipid droplet fluorescence, 18-24 h; for cell number change: measured here: cell count max response, cells fed with added oleic acid
In short: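 Drosophila S3 cells loaded with oleic acid (400 uM, as added) and compounds at several concentrations; lipid droplets imaged by 488-nm laser-scanning cytometry, 500–530 nm intensity and object ratio to cell channel. Percent activity normalized to 20 uM Triacsin C.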

[1] = measured here: lipid fluorescence (Fed channel) AC50, cells fed with added oleic acid
[2] = measured here: cell number channel AC50, cells fed with added oleic acid

Row | SMILES | cell number change [%] | AC50 [1] | AC50 [2]
1 | Cc1cc(C)n(-c2cc(C(=O)O)cc(C(=O)O)c2)n1 | 23.4 | 29.1 µM [rising, single point] | –
2 | CCCN1Cc2cccc(C(=O)NC(CC(=O)OCC)c3ccc(C)cc3)c2C1=O (stereo not given) | -41.7 | 0.731 µM [falling, full curve] | 0.517 µM [falling, partial curve, poor fit]
3 | CCCCNC(=O)Cn1cnc2sc(C)c(S(=O)(=O)N3CCN(c4ccccc4OC)CC3)c2c1=O | 17.4 | – | –
4 | COc1cccc(/C=N/NC(=O)C(=O)NCc2cccnc2)c1OC | 10.1 | 0.103 µM [falling, full curve, poor fit] | –
5 | O=C(/C=C/c1cccc([N+](=O)[O-])c1)N1CCN(Cc2ccccc2)CC1 | 9.45 | 29.1 µM [falling, single point] | –
6 | COc1ccc(OC)c(S(=O)(=O)N2CCC(C(=O)NC(C)c3ccccc3)CC2)c1 (stereo not given) | -3.47 | 2.06 µM [rising, single point] | –
7 | CN(C(=O)CN1C(=O)C2C3CC(C(Br)C3Br)C2C1=O)C1CCCCC1 (stereo not given) | 1.32 | 5.62 µM [falling, single point] | –
8 | COc1ccc(NC(=O)c2ccc(COCC(F)(F)C(F)F)cc2)cc1OC | -7.65 | 18.4 µM [falling, single point] | –
9 | C=CCOn1c(=O)c(-c2ccccc2)[n+]([O-])c2ccccc21 | 24.9 | 1.3 µM [rising, full curve, poor fit] | –
10 | CC(C)(C)CC(C)(C)NC(=S)Nc1ccc(S(=O)(=O)N2CCOCC2)cc1 | 8.19 | – | –
11 | Cn1c(C(=O)OC(C(=O)NC2CCCCC2)c2ccncc2)cc2sccc21 (stereo not given) | 30 | – | 2.59 µM [rising, full curve, poor fit]
12 | O=C(COC(=O)c1ccccc1Br)Nc1ccc2[nH]c(=O)[nH]c2c1 | 49.5 | – | 20.6 µM [rising, single point]
13 | COc1ccc(N2CCN(C(=O)C3CCN(C(=O)c4ccc([N+](=O)[O-])cc4)CC3)CC2)cc1 | -26.2 | 2.91 µM [falling, single point] | –
14 | COCCNC(=O)COc1cc(=O)n(C)c2ccccc12 | 18.4 | 8.2 µM [rising, partial curve, poor fit] | –
15 | O=C(N/N=C/c1cc(Br)c(O)c(Br)c1O)c1cccnc1 | -2.78 | 3.26 µM [rising, partial curve, poor fit] | –
16 | CCc1ccccc1NC(=O)CNC(=O)CNC(=O)Cc1ccccc1 | 151 | 3.66 µM [falling, single point] | 3.66 µM [falling, single point]
17 | Cc1cc(C(=O)NNC(=O)CCCCC(=O)NNC(=O)c2cc(C)[nH]n2)n[nH]1 | 55.2 | 18.4 µM [rising, single point] | 9.2 µM [rising, partial curve]
18 | O=S(=O)(c1ccc(Cl)cc1)c1nc(-c2ccccc2F)oc1NCCCN1CCOCC1 | 37.4 | 4.11 µM [rising, full curve] | 2.31 µM [rising, full curve, poor fit]
19 | CC1=CCC(COC(=O)Nc2ccccc2)CC1 (stereo not given) | -32.6 | 20.6 µM [falling, single point] | 18.4 µM [falling, single point]
20 | COCCn1cnnc1SCC(=O)Nc1cccc(S(=O)(=O)N2CCCCC2)c1 | 36 | 29.1 µM [rising, partial curve, poor fit] | 32.6 µM [rising, single point]
21 | CCCCN(C(=O)CSc1nnc(-c2ccc(Cl)cc2)o1)c1c(N)n(CC(C)C)c(=O)[nH]c1=O | -29.5 | 6.51 µM [falling, single point] | –
22 | COc1cc(C(=O)Nc2sc(C(=O)N3CCOCC3)c(C)c2C#N)cc(OC)c1OC | -3.41 | 6.51 µM [rising, single point] | –
23 | COc1cc(/C=N/OCC(=O)Nc2cc(C)cc(C)c2)ccc1OCc1ccc(Cl)cc1 | – | – | 0.13 µM [falling, full curve, poor fit]
24 | COc1cccc(N2CCN(S(=O)(=O)c3ccc(-c4coc(C)n4)cc3)CC2)c1 | -24.9 | 29.1 µM [falling, single point] | –
25 | CCOc1cc(/C=N/N=C(N)N)ccc1OCc1ccc(Cl)cc1 | -89 | 23.1 µM [falling, single point] | 20.6 µM [falling, single point]
26 | Cc1cccn2c(NCc3ccc4c(c3)OCO4)c(-c3ccc(O)cc3)nc12 | 69.7 | 18.4 µM [rising, single point] | 0.411 µM [rising, full curve]
27 | CCOC(=O)c1ccc(N/C=C\C(=O)c2cccc(OC)c2)cc1 | -0.988 | 16.4 µM [rising, single point] | –
28 | COc1ccc(Cl)cc1C(=O)NCCS(=O)(=O)N1CCN(c2ccccc2F)CC1 | – | 29.1 µM [falling, single point] | –

Row | SMILES | cell number change [%] | AC50 [1] | AC50 [2]
29 | O=C(NC(=S)Nc1sc2c(c1C(=O)O)CCCC2)c1ccccc1 | – | 29.1 µM [rising, single point] | –
30 | C=CCn1c(O)c(N=NC(=S)Nc2ccccc2F)c2cc(S(=O)(=O)N3CCOCC3)ccc21 | 22.7 | 0.0651 µM [rising, full curve, poor fit] | 1.64 µM [rising, full curve, poor fit]
31 | COC(=O)c1ccccc1NC(=S)N1CCC(N2CCCCC2)CC1 | -19 | – | –
32 | Cc1ccc2c(c1)c1ncnc(N3CCOCC3)c1n2C | -6.55 | 2.59 µM [rising, full curve, poor fit] | –
33 | CCOC(=O)C1C(=O)NC(N2CCN(c3ccccc3)CC2)=NC1c1ccco1 (stereo not given) | 70.3 | 29.1 µM [rising, single point] | –
34 | COc1ccc(C(=O)N2CC3(C)C4CCC3(C)C2(C#N)C4)cc1OC (stereo not given) | 47.8 | 20.6 µM [rising, partial curve, poor fit] | 9.2 µM [rising, partial curve, poor fit]
35 | O=C(Nc1c2c(nn1-c1cccc(Cl)c1)CS(=O)C2)c1ccc2c(c1)OCO2 (stereo not given) | 9.91 | 14.6 µM [rising, partial curve, poor fit] | –
36 | COc1ccc(/C(C)=N/NC(=O)c2nc(C)cc(C)n2)cc1 | 48.9 | – | 8.2 µM [rising, single point]
37 | CCOC(=O)NC(=O)C(=CNc1cccc(OC)c1)C(=O)NC(=O)OCC | 0.767 | 0.082 µM [rising, full curve, poor fit] | –
38 | COC(=O)N/N=C1\CCCc2ccccc21 | 9.56 | 20.6 µM [rising, single point] | –
39 | CC(C)Cc1nc2sc3c(NCc4ccco4)ncnc3c2c2c1COC(C)(C)C2 | – | 0.58 µM [rising, single point] | 0.731 µM [rising, single point]
40 | COc1ccc(-n2ccnc(SCC(=O)NC3CCCC3)c2=O)cc1 | 24.2 | 29.1 µM [rising, single point] | –
41 | CCOC(=O)C1C(=O)NC(c2ccccc2)=NC1c1ccc(F)cc1 (stereo not given) | 14.4 | 14.6 µM [rising, single point] | –
42 | COc1cccc(-c2coc3cc4oc(=O)c(CC(=O)O)c(C)c4cc23)c1 | -8.11 | – | 0.517 µM [rising, single point]
43 | COc1ccc(CNC(=O)CN(C(=O)c2csnn2)c2ccc(F)cc2)cc1 | – | 29.1 µM [rising, single point] | –
44 | CC(C)(C)C1CCc2onc(C(=O)N3CCOCC3)c2C1 (stereo not given) | 0.135 | – | –
45 | Cc1cc(/C=C(\C#N)C(=O)OCC#N)c(C)n1CC(C)C | 93.5 | 23.1 µM [rising, single point] | 20.6 µM [rising, partial curve]
46 | COc1ccc(NC(=O)Cn2c3ccccc3c3nc4n(c(=O)c32)CCS4)cc1 | -4.55 | 29.1 µM [falling, single point] | –
47 | CCOc1cccc2cc(C(C)=O)oc12 | 50.7 | 6.51 µM [rising, full curve, poor fit] | 0.00461 µM [rising, full curve, poor fit]
48 | CC(=O)c1ccc(N2C(=O)NC3(CCCCC3)C2=O)cc1 | -21.6 | 2.31 µM [falling, full curve] | –
49 | CC(C)(C)c1ccc(SCCc2ccccn2)cc1 | -27 | 29.1 µM [falling, single point] | –
50 | COCCN(C(=O)CSc1ncc(C(F)(F)F)cc1Cl)c1c(N)n(Cc2ccccc2)c(=O)[nH]c1=O | -63.1 | 5.17 µM [falling, partial curve] | 6.51 µM [falling, partial curve]
51 | CCn1c(O)c(N=Nc2ccc3ccccc3n2)c2ccccc21 | 18.6 | 29.1 µM [rising, single point] | –
52 | Cc1ccccc1OCc1nc2ccccc2[nH]1 | 8.67 | 23.1 µM [rising, single point] | –
53 | Cc1ccc(/C=C(\NC(=O)c2ccccc2)C(=O)NCCc2ccccn2)o1 | 0.57 | 0.116 µM [falling, full curve, poor fit] | –
54 | CCCOc1ccc(C2C(C(=O)c3ccc(C)o3)=C(O)C(=O)N2Cc2ccco2)cc1OCC (stereo not given) | 4.95 | 29.1 µM [rising, single point] | –
55 | COc1ccccc1/C=C/C(=O)NCC(=O)N=Nc1c(O)[nH]c2ccccc12 | – | 5.8 µM [falling, full curve] | 4.11 µM [falling, partial curve, poor fit]

Looked up by compound from the list above:
Row | SMILES | cell number change [%] | AC50 [1] | AC50 [2]
54 | CCCOc1ccc(C2C(C(=O)c3ccc(C)o3)=C(O)C(=O)N2Cc2ccco2)cc1OCC (stereo not given) | 4.95 | 29.1 µM [rising, single point] | –
49 | CC(C)(C)c1ccc(SCCc2ccccn2)cc1 | -27 | 29.1 µM [falling, single point] | –
